PMC7819943, “Rice protein-binding microarrays: a tool to detect cis-acting elements near promoter regions in rice”
Some of the results follow.

By UniProt entry, the sequences of proteins in these tests, tags left out.
UniProt Q0JBA9, entry or part of it: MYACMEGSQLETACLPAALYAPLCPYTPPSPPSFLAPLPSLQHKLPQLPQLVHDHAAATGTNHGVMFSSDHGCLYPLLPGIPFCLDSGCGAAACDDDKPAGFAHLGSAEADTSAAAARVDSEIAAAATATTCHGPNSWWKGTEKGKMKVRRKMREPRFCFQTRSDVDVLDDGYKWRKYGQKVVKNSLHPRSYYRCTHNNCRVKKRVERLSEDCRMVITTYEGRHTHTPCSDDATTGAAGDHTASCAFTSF

target: OsWRKY34 (Oryza sativa, UniProt Q0JBA9 1-250); experiment: protein-binding microarray (RPBM); PBS, 2% BSA, 51.3 ng/ul salmon testes DNA, 50 uM zinc acetate, 200 nM TF, 25 C, 1 h; high values mean tight binding; settings: protein: recombinant; tags: N-terminal polyhistidine and DsRed monomer fusion (pET32a); label: CyDye5-dUTP incorporated in the synthesized complementary strand; 3' TTTTT single-stranded linker to array surface; dsDNA, one strand shown
Procedure, shortened: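 A custom Agilent array was converted to double-stranded form by primer extension with Cy5-dUTP and blocked with 2% BSA. Protein at 200 nM in PBS with 2% BSA, salmon testes DNA and 50 µM zinc acetate was applied for 1 h at 25 °C, followed by washing. The proteins were polyhistidine–DsRed N-terminal fusions of transcription factors, expressed in E. coli BL21-CodonPlus and Ni–NTA-purified. The binding signal is per-feature fluorescence intensity (arbitrary units) from an Axon 4000B scanner.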

| Sequence | binding signal |
| --- | --- |
| TTCTCATACCTTTTTCAATCTACTCCCTCTGGCTACATAACGGAGTCACCTAGTGCAG | 8380 fluorescence intensity (a.u.) |
| TTCCTACGATTTTCTAATTTTTCCCATATATTTCTCATATCGGAGTCACCTAGTGCAG | 8250 fluorescence intensity (a.u.) |
| GCGCACAAACAAAGCCGAATTAACACTCACGCTAAAACGTCGGAGTCACCTAGTGCAG | 11000 fluorescence intensity (a.u.) |
| CCCGTTGGCGATTGCGATGCTCCAAGTTGGTTACAATGTACGGAGTCACCTAGTGCAG | 8090 fluorescence intensity (a.u.) |
| CCACCGGCGGGCCCCACCATCTTGACTCCTCTCTGTGATCCGGAGTCACCTAGTGCAG | 8610 fluorescence intensity (a.u.) |
| ACCCACCATGCCACCCCACTCCTTCTTTAAACTTGTAAACCGGAGTCACCTAGTGCAG | 9480 fluorescence intensity (a.u.) |
| GATTATACTGTATTTAATTGCGAGGAATGGTCTCTTTCAACGGAGTCACCTAGTGCAG | 10500 fluorescence intensity (a.u.) |
| GCGAGGATTCTTCGCCGACTGCTTCGTGTCATCTCGTCTCCGGAGTCACCTAGTGCAG | 9770 fluorescence intensity (a.u.) |
| TCGTGCGGCCATTGGCCCCTCTTCCATTCCTGCTATTCTCCGGAGTCACCTAGTGCAG | 9630 fluorescence intensity (a.u.) |
| CTTCGTTTTGTCAATCGCAATATTATTGCGTTCTCTTGTCCGGAGTCACCTAGTGCAG | 8300 fluorescence intensity (a.u.) |
| AAATTTAATTAATTATGTGTTAAACACTGCTTCGTTTTATCGGAGTCACCTAGTGCAG | 8460 fluorescence intensity (a.u.) |
| TGTGGGTTGGAGCGGGTGGCCTCTAGGGTTTAGTGCAGTACGGAGTCACCTAGTGCAG | 10200 fluorescence intensity (a.u.) |
| CTCACATGTATGCACACTGTGATTTTTTTCCTTCCTCACTCGGAGTCACCTAGTGCAG | 8700 fluorescence intensity (a.u.) |
| CCAACAACAGTGGCCTAAATTGCATTTCATAATTATTTTACGGAGTCACCTAGTGCAG | 8860 fluorescence intensity (a.u.) |
| GAAACTGTCATTCTCTTATAAGGTGCGCTAAAATTTAAATCGGAGTCACCTAGTGCAG | 8820 fluorescence intensity (a.u.) |
| GGTGTTGTGGATGTTCACCAGCTTTGGAGGGTTTGATTAGCGGAGTCACCTAGTGCAG | 8360 fluorescence intensity (a.u.) |
| CTGGAACTCGCATACTTTCAGCTCATTGGTATAAAATTTCCGGAGTCACCTAGTGCAG | 10400 fluorescence intensity (a.u.) |
| ACGCGCAGCCACGAAGCATGGCCATCCACGATAACGTACCCGGAGTCACCTAGTGCAG | 8320 fluorescence intensity (a.u.) |
| GTTGACCGTTGACCTTTTTGTGGGTCAACTCAATCAAGACCGGAGTCACCTAGTGCAG | 16600 fluorescence intensity (a.u.) |
| CCCTAATATCACTCGACTACATTTTCATCCTCTTAGAATTCGGAGTCACCTAGTGCAG | 8450 fluorescence intensity (a.u.) |
| ATTTTTTTTATATTTGAATGGTATGCTCCATTGTTTTTTACGGAGTCACCTAGTGCAG | 11000 fluorescence intensity (a.u.) |
| CCGTTCGCTATCTCTTCTTCTCCTCTTCTCTCCCCTTCTCCGGAGTCACCTAGTGCAG | 10000 fluorescence intensity (a.u.) |
| TTATGTTTATATTATTGGGTAAAGGGAGTAGTGGGTATCACGGAGTCACCTAGTGCAG | 8510 fluorescence intensity (a.u.) |
| ACGTTCTTGGCTGCATCCATCCCTTCGTCACTAAGGCAATCGGAGTCACCTAGTGCAG | 12200 fluorescence intensity (a.u.) |
| GACCTACGTCACCACCTTGCATGTCCCACGCGGAGCTCCACGGAGTCACCTAGTGCAG | 9230 fluorescence intensity (a.u.) |
| TGGTTCCATGTCCTTATTTCAGTAGACCACGCTACTACGACGGAGTCACCTAGTGCAG | 8970 fluorescence intensity (a.u.) |
| ACTCCATCACCACCACCCCACCTATATATCTCGCGGCCTCCGGAGTCACCTAGTGCAG | 10400 fluorescence intensity (a.u.) |

| Sequence | binding signal |
| --- | --- |
| CCATTCGTGTCCGAAAACCCCTTTCGACATTCGGTCAAATCGGAGTCACCTAGTGCAG | 8430 fluorescence intensity (a.u.) |
| ACAAGTAGCCTCTATATGTTTGTGCCTAGATAGCGTCGTCCGGAGTCACCTAGTGCAG | 8630 fluorescence intensity (a.u.) |
| AATGGGAGGATGATGCTTAATGTTGACCAACTTTTCAAGCCGGAGTCACCTAGTGCAG | 8190 fluorescence intensity (a.u.) |
| ACACTTCCACATCACCACAATTCTTTTGCACCGTCCGATACGGAGTCACCTAGTGCAG | 9010 fluorescence intensity (a.u.) |
| GAGTTCATAGTTTCATGCTCACCTTGTCATCTCCAGAGTTCGGAGTCACCTAGTGCAG | 8650 fluorescence intensity (a.u.) |
| GAGAGGGGAGGGGAGGGGACAAGTATCGCGGAACCTGACCCGGAGTCACCTAGTGCAG | 12900 fluorescence intensity (a.u.) |
| ACCGCAGTTTAGCCATATCGCCGCCGCCGCCGCCGCCATGCGGAGTCACCTAGTGCAG | 8440 fluorescence intensity (a.u.) |
| CTGTGCTACAAATCCGCTTTTCTCCTCTCTTCTTCTCATCCGGAGTCACCTAGTGCAG | 9780 fluorescence intensity (a.u.) |
| CCTCTCCCTCGTTTTTCGTGCGCATGCTTTTCAAACTGCTCGGAGTCACCTAGTGCAG | 8730 fluorescence intensity (a.u.) |
| ATATCGTATCAGCACGTTATTAGGTGGGGAGAGTGTTTTCCGGAGTCACCTAGTGCAG | 8140 fluorescence intensity (a.u.) |
| GATCAACCTCTGCAATTAGCCATCCCCACGTTCGATTAGCCGGAGTCACCTAGTGCAG | 9030 fluorescence intensity (a.u.) |
| TTGTGTGGTGGGGCGCCTCAACTGAAGTTGCCAAAATGCTCGGAGTCACCTAGTGCAG | 8220 fluorescence intensity (a.u.) |
| CTCCAACTTGTTCGGTTGTGTCACCCCGGTCTCTAAACTTCGGAGTCACCTAGTGCAG | 8530 fluorescence intensity (a.u.) |
| TTCTCTGCAGTCTTTGCCCCATTTTCACATAATCTCCACACGGAGTCACCTAGTGCAG | 11500 fluorescence intensity (a.u.) |
| GTGTTATTTTGTCCGTAGCTGCACATGAAACTATAGCTACCGGAGTCACCTAGTGCAG | 8100 fluorescence intensity (a.u.) |
| TCTTTCCTGGCCCGACCGACATCCCCACAGGAGATAACACCGGAGTCACCTAGTGCAG | 10900 fluorescence intensity (a.u.) |
| AAAATAGCATTCATCCGTTGCAACGCACGGACATTTTCGTCGGAGTCACCTAGTGCAG | 8050 fluorescence intensity (a.u.) |
| AGTTTGCGTTGTGTCATCCGTATTTGCAGTAACTCTTTTGCGGAGTCACCTAGTGCAG | 10300 fluorescence intensity (a.u.) |
| GTTCTGCTAATCTGTAATGTTTCTTTTGTTTGTCATATCTCGGAGTCACCTAGTGCAG | 8490 fluorescence intensity (a.u.) |
| GACCATCCCTATGCTCCACCCCACCGTCGCCCGCTCCGGCCGGAGTCACCTAGTGCAG | 12300 fluorescence intensity (a.u.) |
| ACTTTTTTCCTAATCAAACTTCTTCACGTTTGACTAAGTTCGGAGTCACCTAGTGCAG | 9600 fluorescence intensity (a.u.) |
| AGTATATACTTTTGTTGATTGCATTCTTTCCTTTTCTTTTCGGAGTCACCTAGTGCAG | 12000 fluorescence intensity (a.u.) |
| TTTGTGATGTGAAGGTCCGAAGGGTGTTTGGGAGATGGCACGGAGTCACCTAGTGCAG | 8130 fluorescence intensity (a.u.) |
| AATGTATAGGTGGTCCCGTGCTTTTGTATTGTGTTTGCGTCGGAGTCACCTAGTGCAG | 10400 fluorescence intensity (a.u.) |
| ATCTCCATCTCTATGTGTTACTATGTTATGCGTGTATCGTCGGAGTCACCTAGTGCAG | 9500 fluorescence intensity (a.u.) |
| GCAAAGTGTCTCGCTCTCACTCTCACTCTCGAGCCATCGTCGGAGTCACCTAGTGCAG | 10500 fluorescence intensity (a.u.) |
| CTCTCTCTCTCTCTCTCGCACCACCGCTCTCTTCCGCCGCCGGAGTCACCTAGTGCAG | 10800 fluorescence intensity (a.u.) |

3 entries from above, comma-delimited.
Sequence,binding signal
ATATCGTATCAGCACGTTATTAGGTGGGGAGAGTGTTTTCCGGAGTCACCTAGTGCAG,8140 fluorescence intensity (a.u.)
GATCAACCTCTGCAATTAGCCATCCCCACGTTCGATTAGCCGGAGTCACCTAGTGCAG,9030 fluorescence intensity (a.u.)
TTGTGTGGTGGGGCGCCTCAACTGAAGTTGCCAAAATGCTCGGAGTCACCTAGTGCAG,8220 fluorescence intensity (a.u.)
